In the experiment the target is Arabidopsis NOT4A E3 ubiquitin ligase (Arabidopsis thaliana). The experiment in a line: two-hybrid.

Results are given in words; binding and its absence hold for the method and conditions named.

B1: PROTON GRADIENT REGULATED 3 (PGR3), pentatricopeptide repeat protein (protein, UniProt Q9SZ52 1-1112)
chain: MVALLCSASLCGDISVGDACLVSNIKAKCRDNLVTGGLKFHALKIGSRKKHWRRKSMRCSVVSMKSSDFSGSMIRKSSKPDLSSSEEVTRGLKSFPDTDSSFSYFKSVAGNLNLVHTTETCNYMLEALRVDGKLEEMAYVFDLMQKRIIKRDTNTYLTIFKSLSVKGGLKQAPYALRKMREFGFVLNAYSYNGLIHLLLKSRFCTEAMEVYRRMILEGFRPSLQTYSSLMVGLGKRRDIDSVMGLLKEMETLGLKPNVYTFTICIRVLGRAGKINEAYEILKRMDDEGCGPDVVTYTVLIDALCTARKLDCAKEVFEKMKTGRHKPDRVTYITLLDRFSDNRDLDSVKQFWSEMEKDGHVPDVVTFTILVDALCKAGNFGEAFDTLDVMRDQGILPNLHTYNTLICGLLRVHRLDDALELFGNMESLGVKPTAYTYIVFIDYYGKSGDSVSALETFEKMKTKGIAPNIVACNASLYSLAKAGRDREAKQIFYGLKDIGLVPDSVTYNMMMKCYSKVGEIDEAIKLLSEMMENGCEPDVIVVNSLINTLYKADRVDEAWKMFMRMKEMKLKPTVVTYNTLLAGLGKNGKIQEAIELFEGMVQKGCPPNTITFNTLFDCLCKNDEVTLALKMLFKMMDMGCVPDVFTYNTIIFGLVKNGQVKEAMCFFHQMKKLVYPDFVTLCTLLPGVVKASLIEDAYKIITNFLYNCADQPANLFWEDLIGSILAEAGIDNAVSFSERLVANGICRDGDSILVPIIRYSCKHNNVSGARTLFEKFTKDLGVQPKLPTYNLLIGGLLEADMIEIAQDVFLQVKSTGCIPDVATYNFLLDAYGKSGKIDELFELYKEMSTHECEANTITHNIVISGLVKAGNVDDALDLYYDLMSDRDFSPTACTYGPLIDGLSKSGRLYEAKQLFEGMLDYGCRPNCAIYNILINGFGKAGEADAACALFKRMVKEGVRPDLKTYSVLVDCLCMVGRVDEGLHYFKELKESGLNPDVVCYNLIINGLGKSHRLEEALVLFNEMKTSRGITPDLYTYNSLILNLGIAGMVEEAGKIYNEIQRAGLEPNVFTFNALIRGYSLSGKPEHAYAVYQTMVTGGFSPNTGTYEQLPNRA
As to B1, the binding result was “no binding”.

The values above are taken from publication doi:10.1101/2020.04.02.021998.
